Experimental data taken from the supplement of paper PMC3334620.
The full ranking holds about 33,000 sequences; the median of “E-score (-0.5 to 0.5)” is about -0.0034, and the highest 2% start at about 0.25. This is one part of the list.

molecular target: T1, Yap3 (UniProt P38749); experiment: PBM E-score (8-mer binding enrichment) (E-score (-0.5 to 0.5)); higher = stronger / more preferred TF binding; conditions: protein concentration: 100 nM; construct: GST-full length
T1 sequence: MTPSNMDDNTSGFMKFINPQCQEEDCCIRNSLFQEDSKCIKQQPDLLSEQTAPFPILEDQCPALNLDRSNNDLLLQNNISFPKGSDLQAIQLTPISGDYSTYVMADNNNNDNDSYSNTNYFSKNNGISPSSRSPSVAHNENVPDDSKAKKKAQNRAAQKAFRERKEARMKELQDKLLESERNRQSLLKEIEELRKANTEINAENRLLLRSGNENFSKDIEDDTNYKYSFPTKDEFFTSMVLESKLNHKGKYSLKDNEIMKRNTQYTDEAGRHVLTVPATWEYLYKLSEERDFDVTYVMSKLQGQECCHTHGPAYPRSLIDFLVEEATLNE
In short: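 Yeast transcription factors carrying a GST tag, as full-length proteins or DNA-binding domains, were produced by PURExpress in vitro transcription/translation. About 100-200 nM protein was applied to universal all-10-mer Agilent arrays, double-stranded by primer extension on fresh or once-stripped slides. Bound protein was detected with fluorescent anti-GST, and scans were normalised with masliner. The Universal PBM Analysis Suite gave each ungapped eight-base word, pooled with its reverse complement, an E-score, a modified Wilcoxon-Mann-Whitney statistic.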

| Sequence | PBM E-score |
| --- | --- |
| AGACCGGA | -0.0997 |
| ATCCCCTA | -0.0597 |
| AATTTCCC | 0.217 |
| CTTGAAAA | 0.161 |
| AACCGGTC | 0.0496 |
| AGATCCGA | 0.0264 |
| CGAGAGCA | -0.0377 |
| ATTTCCGC | 0.0972 |
| TCACCAAA | 0.138 |
| CTTTTAGC | -0.00556 |
| CGTTGAAA | 0.0583 |
| ATGCGATG | -0.143 |
| GCGTAAAA | 0.231 |
| GCTCTCTA | -0.101 |
| ACGAGATG | -0.00787 |
| AGCCGACC | -0.277 |
| CATTAGCC | -0.0433 |
| CCACTGAA | -0.0362 |
| CTCTAAAC | 0.167 |
| GCGAGCAA | -0.0568 |
| CTGGCCAG | -0.153 |
| GGATGATA | 0.122 |
| AACTCTAA | 0.0145 |
| CGGCAGAG | -0.224 |
| AAATGAGA | 0.0852 |

Copied from the list.
PBM E-score, AACCGGTC reads 0.0496
PBM E-score, CTGGCCAG reads -0.153

Additional results.

| Sequence | PBM E-score |
| --- | --- |
| CACTGAGA | 0.0397 |
| ACACATTC | 0.094 |
| AAGTCATG | 0.156 |
| CCGCAACC | -0.204 |
| AGAGGGAA | -0.297 |
| AATCGTTG | 0.146 |
| AATGTTCT | -0.00259 |
| AGAGCATG | -0.152 |
| TAAATTGA | 0.157 |
| ATCCCGAA | 0.0926 |
| TGCATACA | 0.0671 |
| CGGTACTA | -0.00581 |
| GTAGTCTA | 0.112 |
| CTACTAAG | 0.0819 |
| AAATAGGT | 0.127 |
| AGCGCGTA | 0.199 |
| GCGGACGA | -0.0635 |
| ACCTGAAG | 0.00792 |
| AGTAAACT | 0.0322 |
| AGAGTGAC | -0.195 |
| GGTATCTA | 0.0685 |
| CTAACGTA | 0.191 |
| GTAATTAA | 0.259 |
| ACGCTCTC | -0.165 |
| TCATATGA | 0.317 |

| Sequence | PBM E-score |
| --- | --- |
| CCCGAGCG | -0.137 |
| AAGAACCT | 0.131 |
| ACGGCAAC | -0.044 |
| GATTATGC | 0.0614 |
| GATATAAA | 0.21 |
| ACACCACA | 0.0359 |
| ACCCTTGC | -0.0563 |
| CGTTGAGA | -0.0379 |
| ACAACTTG | 0.152 |
| AGGCTTTC | 0.061 |
| ACTATTGG | 0.0824 |
| CTATGTCA | 0.00564 |
| CCTAATGA | 0.128 |
| GCAGGTCA | -0.128 |
| CAGGTCAG | -0.0863 |
| ACACAGAA | -0.0211 |
| AACCGGGT | -0.172 |
| AACCGGTT | 0.087 |
| AATGCCAT | -0.00745 |
| TCCGCCGA | -0.096 |
| AGAATTAA | 0.0654 |
| AAGCAGCC | -0.144 |
| GGAAACGA | 0.184 |
| AGGCTCTG | -0.133 |
| TAGAAGGA | -0.239 |

Reprinted from the listing (2 entries):

| Sequence | PBM E-score |
| --- | --- |
| ACACCACA | 0.0359 |
| ACCCTTGC | -0.0563 |

Remaining list, next part:

| Sequence | PBM E-score |
| --- | --- |
| CACCTTAC | 0.213 |
| AACAGAAC | 0.104 |
| ACCGTCTG | -0.262 |
| AAATGGTG | 0.0935 |
| TCAACTGA | 0.0958 |
| AGGATAGC | 0.0231 |
| ATAGCGTG | -0.00896 |
| ATTGATTC | 0.0449 |
| ACACATGA | 0.126 |
| CCGGGCCG | -0.338 |
| TATCCAGA | 0.0575 |
| ATCTTCGC | 0.0966 |
| AAAAGGGG | -0.187 |
| GGAAATAA | 0.222 |
| ATACAGTC | -0.0773 |
| AACGCACC | -0.0728 |
| ACTGTATC | -0.119 |
| ATGGAATG | -0.156 |
| CGAGATAA | 0.29 |
| AGGCATAG | 0.00733 |
| CATTACAG | 0.182 |
| CCCCGGCA | -0.272 |
| ATAGGTGC | -0.062 |
| TCGTAGAA | -0.0144 |
| CATGACGG | -0.0576 |

| Sequence | PBM E-score |
| --- | --- |
| AGCACCTA | -0.129 |
| CGCCATCA | -0.148 |
| GGGGTGTA | -0.195 |
| CGGGTTAA | -0.0948 |
| CGGCTACA | -0.0247 |
| GCTTTTCA | 0.0397 |
| AGGCACTC | -0.187 |
| CGTCACGA | 0.0412 |
| CTCTCCCC | -0.22 |
| GTCACGTA | -0.0646 |
| CTCGCGAG | 0.0456 |
| AATGTTGT | 0.128 |
| AATAGATA | 0.267 |
| CCGGCGAA | 0.11 |
| CGGTCCCA | -0.277 |
| AATCCGGG | -0.242 |
| ACCCTGTC | -0.164 |
| AGTAAGTA | 0.221 |
| CACGCCGA | -0.212 |
| GGGCACCA | -0.181 |
| CGGTCGCA | -0.1 |
| GTTCCACA | -0.107 |
| ATGGGTGA | -0.112 |
| CCGACACG | -0.151 |
| CTCTCTAC | 0.111 |

| Sequence | PBM E-score |
| --- | --- |
| ATCGAGCA | -0.0793 |
| ATGGTCTC | -0.0905 |
| GGAGCCAC | -0.164 |
| ACTATTAT | 0.123 |
| CCGCTGCG | -0.214 |
| ACTGGTTC | 0.133 |
| ATACGTAA | 0.266 |
| CCAACCAG | -0.152 |
| CGCAGGCA | -0.162 |
| CAAATGGG | 0.0603 |
| GAAGCTAA | -0.136 |
| GATCTGGA | -0.0302 |
| AGCTCGAT | 0.128 |
| ACAGTATA | 0.156 |
| GCTACTCC | 0.0046 |
| CTGTAAAA | 0.17 |
| TCTGGCAA | 0.0515 |
| CGGCGAAG | -0.0772 |
| GTATTGAA | 0.229 |
| TATACCAA | 0.203 |
| AGTTCTCA | 0.09 |
| AAAAAATA | 0.287 |
| AGGTTATG | 0.0516 |
| AACAAATC | 0.0915 |
| GTCTACCA | -0.131 |

| Sequence | PBM E-score |
| --- | --- |
| TGTCTCAA | -0.0116 |
| CGCGCGTA | -0.00409 |
| GCTATCAA | 0.142 |
| GGCATGAA | 0.0597 |
| GATTAACC | -0.045 |
| AATGCAAA | 0.262 |
| AGAACGCC | -0.109 |
| AATGTAAT | 0.253 |
| CCGCGTCC | 0.0306 |
| ATTCTTAG | 0.085 |
| ACAAACTA | 0.122 |
| GGACGTCA | -0.0403 |
| GGCATCTA | -0.0241 |
| AATTCTCG | 0.13 |
| CCCCCGTC | -0.349 |
| ACACCCTG | -0.133 |
| AACGTCTG | -0.0256 |
| GATTTTCA | 0.175 |
| AGACAGTA | 0.121 |
| AGGGGTAG | -0.236 |
| GAAAGCTA | -0.0996 |
| ACTCAACT | 0.134 |
| TCCACAAA | 0.058 |
| AATCCTAA | 0.0112 |
| AATATCAT | 0.277 |

Fetched one by one from the entries so far (seven):

| Sequence | PBM E-score |
| --- | --- |
| AATTCTCG | 0.13 |
| GGACGTCA | -0.0403 |
| GATTTTCA | 0.175 |
| CCCCCGTC | -0.349 |
| AGAACGCC | -0.109 |
| CGCGCGTA | -0.00409 |
| AATGCAAA | 0.262 |

Next entries follow.

| Sequence | PBM E-score |
| --- | --- |
| CTAGCAAA | 0.0766 |
| AAGGAGAT | 0.0143 |
| ACGAGACT | -0.199 |
| ACCCCTCC | -0.205 |
| AAGCCACT | -0.0481 |
| AATTGGGC | 0.0215 |
| CCTAGTGC | -0.111 |
| AAGCAGAA | 0.147 |
| ACCCTACA | -0.0174 |
| CATTCGAC | 0.0059 |
| CCGCAGGC | -0.126 |
| CGTTCCCC | -0.164 |
| TGAATGCA | 0.103 |
| CTACGGCC | -0.13 |
| CGGGGCAC | -0.299 |
| CCGGAATC | 0.00881 |
| GGAATCCA | -0.119 |
| ACGATTTA | 0.312 |
| ACGTATGA | 0.15 |
| GGTAACGA | 0.0757 |
| AATCTTGG | 0.00135 |
| CGGCCGTA | -0.0185 |
| CTCTAGCA | -0.227 |
| AAAAAAAA | 0.244 |
| ACTGTAGC | -0.116 |

| Sequence | PBM E-score |
| --- | --- |
| AGGAAGGG | -0.27 |
| CAGTGAGC | 0.00937 |
| TCCTCCCA | -0.189 |
| CCGCCAGG | -0.215 |
| CCACGGGA | -0.166 |
| GATTATCC | 0.0968 |
| CACCCACA | -0.0926 |
| TAGACCCA | 0.0172 |
| AGGTACAC | -0.0457 |
| ATAGCATA | 0.164 |
| GCTACTAA | 0.138 |
| AACGCGGA | 0.0662 |
| GCCGGGGA | -0.238 |
| GGAGCCAA | -0.151 |
| CGCCCCCA | -0.171 |
| ATTAGGGG | 0.00966 |
| TGCGACAA | -0.00108 |
| GAAGAAGC | -0.11 |
| ATGGTACA | 0.0415 |
